Patent US20230190718A1, “METHODS FOR THE TREATMENT OF PANCREATITIS AND PREVENTION OF PANCREATIC CANCER” (BOARD OF REGENTS, THE UNIVERSITY OF TEXAS SYSTEM, priority 2020, published 2023)
At least one structure is not confirmed: it was looked up by name or label, or the drawing left a doubt.

Test system: Caerulein-induced pancreatitis
Test: Pretreatment with ADM inducers in caerulein-induced pancreatitis: histology (ADM) and CD45 infiltration
Format: in vivo, mice
Settings: for immune cell infiltrates / inflammation (CD45 staining and quantification): Vemurafenib 75 mg/kg oral gavage, twice a day starting 48 hrs before caerulein, 24 hs after caerulein
From the text: Epigenetic modifiers: Recently, the emerging role of epigenetic regulation has led to the development of a wide spectrum of small molecules targeting selectively bromodomain and extra-terminal (BET) protein family which are currently under evaluation in preclinical model of hematological malignancies and solid tumors (Asangani et al., 2014; Delmore et al., 2011; Filippakopoulos et al., 2010). Leveraging the persistent chromatin modifications induced by an acute inflammatory event, the possibility of limiting the detrimental effects of repeated pancreatitis was tested through the administration of INCB054329, a BRD4 inhibitor currently in phase I-II clinical studies in patients with advanced malignancies (Falchook et al., 2019).
Induction of acute pancreatitis. […] Control mice received injections of pyrogen-free PBS. Mice were examined daily for health conditions and sacrificed at the indicated time points by CO2 asphyxiation and cervical dislocation.
DAPI nuclear counterstaining was also performed.

## CCCS(=O)(=O)Nc1ccc(F)c(C(=O)c2c[nH]c3ncc(-c4ccc(Cl)cc4)cc23)c1F [Vemurafenib]
RAF inhibitor administered before the development of pancreatitis
  ADM induction: able to induce ADM
  immune cell infiltrates / inflammation (CD45 staining and quantification): massive reduction in immune cell infiltrates
Listed as PLX4032
  immune cell infiltrates / inflammation (CD45 staining and quantification): further limiting inflammation when compared to EGF
